# Experimental data reported in patent US20100239587A1.
# The chains behind the UniProt entries cited, without tags or fusion partners. Residues count along the entry.
# UniProt P21860, residues 20-643: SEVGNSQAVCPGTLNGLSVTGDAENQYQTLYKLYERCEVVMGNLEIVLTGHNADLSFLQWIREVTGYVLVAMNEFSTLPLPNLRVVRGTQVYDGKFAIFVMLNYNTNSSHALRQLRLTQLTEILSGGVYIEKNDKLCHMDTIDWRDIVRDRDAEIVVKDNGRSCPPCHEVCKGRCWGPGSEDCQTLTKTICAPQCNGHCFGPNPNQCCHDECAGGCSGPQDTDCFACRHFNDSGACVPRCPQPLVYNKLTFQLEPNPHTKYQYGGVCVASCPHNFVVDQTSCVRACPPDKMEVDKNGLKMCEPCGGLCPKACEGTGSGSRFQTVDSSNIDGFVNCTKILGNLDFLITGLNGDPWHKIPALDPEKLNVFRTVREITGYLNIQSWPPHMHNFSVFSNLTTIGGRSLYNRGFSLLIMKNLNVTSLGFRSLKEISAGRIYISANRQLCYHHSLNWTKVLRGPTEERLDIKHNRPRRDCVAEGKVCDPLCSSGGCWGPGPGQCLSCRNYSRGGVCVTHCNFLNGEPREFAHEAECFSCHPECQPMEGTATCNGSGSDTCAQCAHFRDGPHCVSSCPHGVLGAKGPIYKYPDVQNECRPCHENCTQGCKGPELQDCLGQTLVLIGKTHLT
# Results are given in words; binding and its absence hold for the method and conditions named. Some results given as binding are weak or reduced against the parent protein; the word gives no strength.
# Columns and labels:
# [1] = molecular target: ErbB1 extracellular domain (recombinant, soluble) (UniProt P00533); assay: SPR, receptor immobilized, peptide injected
# [2] = molecular target: ErbB2 extracellular domain (recombinant) (UniProt P04626); assay: SPR, receptor immobilized, peptide injected
# [3] = molecular target: ErbB3 extracellular domain (recombinant, soluble) (UniProt P21860); assay: SPR, receptor immobilized, peptide injected
# [4] = molecular target: erbB2-SbdIV (GST fusion protein of subdomain IV of erbB2) (UniProt P04626); assay: SPR, erbB2-SbdIV immobilized, peptide injected
Binder,binding [1],binding [2],binding [3],binding [4]
YCLVWKYADAGCY (cyclized by disulfide bond between the two cysteines (air oxidation)) [B1-S22-ALG],binds,binds,binds,binds
YCPIWKFPDEECY (cyclized by disulfide bond between the two cysteines (air oxidation)) [B2-S22-APE],binds,binds,binds,
YCFPDEEGACY (cyclized by disulfide bond between the two cysteines (air oxidation)) [B2-S22-AFA],binds,binds,binds,binds

# Now from value to binder:
binding [1],binding [2],binding [3],binding [4],Binder
binds,binds,binds,binds,YCPIYKYPDVQCY (cyclized by disulfide bond between the two cysteines (air oxidation)) [B3-S22-APQ]
binds,binds,binds,binds,YCFIFKYADPDCY (cyclized by disulfide bond between the two cysteines (air oxidation)) [B4-S22-AFD]
